PMC9604505
These are yes or no findings as the source states them, for the method shown. In cells and extracts the contact can be indirect. Some binding calls cover weakened binding; strength is not graded here.

Protein sequences, listed by entry. Tags and fused reporters are not part of them. Lines headed by an entry give the natural chain unless they say otherwise; changes in a name come on top.
UniProt P04608: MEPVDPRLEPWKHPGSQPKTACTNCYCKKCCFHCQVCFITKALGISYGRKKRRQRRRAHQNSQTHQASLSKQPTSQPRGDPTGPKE
UniProt P50750: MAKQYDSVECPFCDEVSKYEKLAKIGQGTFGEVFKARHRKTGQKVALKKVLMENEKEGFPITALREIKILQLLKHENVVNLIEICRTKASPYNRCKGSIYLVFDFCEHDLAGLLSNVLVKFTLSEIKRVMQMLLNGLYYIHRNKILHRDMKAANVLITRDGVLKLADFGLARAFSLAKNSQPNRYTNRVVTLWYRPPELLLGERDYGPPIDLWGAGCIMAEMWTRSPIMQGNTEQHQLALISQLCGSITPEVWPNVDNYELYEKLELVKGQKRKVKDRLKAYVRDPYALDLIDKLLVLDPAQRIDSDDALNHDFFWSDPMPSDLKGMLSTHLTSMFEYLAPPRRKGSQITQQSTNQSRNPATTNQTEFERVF

Target: Flag-tagged HIV-1 Tat (HIV-1) (UniProt P04608)
Test: co-IP; HEK293T co-transfected with Flag-Tat, NL4-3EGFP and increasing amounts of Myc-tagged chimeric protein; lysate precipitated with Flag antibody and protein A/G agarose, washed with PBS; blots for CycT1 and CDK9

Substance: positive transcription elongation factor b (P-TEFb): cyclin-dependent kinase 9 (CDK9) and cyclin T1 (CycT1) (from UniProt P50750 1-372; O60563 1-726) (complex)
- binding: binds
